Measurements reported in PubChem BioAssay AID504764 (Drosophila RNAi Screening Center, 2011)

Screen: 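Genome-wide screen for regulators of Notch-driven gene expression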 (primary screen)
Cell system: Drosophila Kc167 cells
Knock-down reagent: long dsRNA against Drosophila genes
Duration: about 5 days (4 days dsRNA, then 24 h after transfection)
Challenge: transfection of constitutively active membrane-tethered Notch lacking the extracellular domain, read 24 h later
Read-out: 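Light from a Notch-responsive E(spl)m3 luciferase reporter under active Notch, with control-promoter and no-Notch reporter wells to normalise; raw counts from paired wells a and b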
Reading the numbers: induced reporter light, run 1, well a and induced reporter light, run 1, well b: higher = more light from the Notch target reporter with active Notch; control promoter light, run 1, well a and control promoter light, run 1, well b: higher = more light from the viral control promoter (cell number, transfection, viability); uninduced reporter light, run 1, well a: higher = more light from the Notch target reporter without active Notch
Rule for the call: 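Wells with low control signal or poorly matching duplicates excluded; duplicates averaged; per source plate, z beyond ±2 for induced/control log2 ratio or beyond ±1.8 for induced/uninduced marks a hit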
Calls: active = modifier hit (raised or lowered Notch signal); inactive = not a hit
The deposit covers about 22,000 reagents; shown is a random part of those that have a named target and a result. In the full data, 403 (1.9%) were called active. 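Unnormalised raw counts per well; ratio z-scores behind the hit calls and whether each hit raises or lowers signal are not deposited.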 A plus sign joins genes that one reagent is predicted to hit. Not given: the amount of reagent.

target gene	amplicon	induced reporter light, run 1, well a	induced reporter light, run 1, well b	control promoter light, run 1, well a	control promoter light, run 1, well b	uninduced reporter light, run 1, well a	Outcome
shams	DRSC16590	1.71e5	1.65e5	1.89e5	2.27e5	14240	inactive
Boh1 (Buddy of Hmr 1)	DRSC14487	1.63e5	1.73e5	2.35e5	2.30e5	11505	inactive
mEFTu2 (mitochondrial translation elongation factor Tu 2)	DRSC06163	1.91e5	1.82e5	1.80e5	2.20e5	16015	inactive
CG17191	DRSC15185	1.56e5	1.12e5	1.70e5	1.62e5	14145	inactive
GstT4 (Glutathione S transferase T4)	DRSC19757	1.60e5	1.84e5	2.57e5	1.88e5	14475	inactive
CG33257	DRSC09917	1.87e5	1.56e5	1.93e5	2.08e5	8200	inactive
CG4586	DRSC18373	2.64e5	2.13e5	2.58e5	2.11e5	17315	inactive
CG7149	DRSC03016	1.62e5	1.60e5	1.58e5	1.60e5	14735	inactive
ovo	DRSC18050	2.98e5	2.77e5	3.53e5	3.49e5	17320	inactive
ovo	DRSC18812	1.68e5	1.40e5	2.79e5	2.98e5	11280	inactive
Topors (Topoisomerase I-interacting protein)	DRSC06531	1.17e5	93195	1.49e5	1.80e5	9425	inactive
CG9386	DRSC16485	83970	90355	1.21e5	87430	8205	inactive
CG30350	DRSC07690	1.98e5	1.69e5	2.10e5	2.14e5	17000	inactive
Duox (Dual oxidase)	DRSC00571	1.45e5	1.25e5	1.13e5	1.03e5	10615	inactive
Arpc3B (Actin-related protein 2/3 complex, subunit 3B)	DRSC20126	53115	56115	67575	60005	6950	inactive
CG8478	DRSC16427	1.39e5	1.11e5	1.56e5	1.09e5	10335	inactive
CG31454	DRSC14365	89495	1.07e5	98320	84370	6675	inactive
CG33514	DRSC08471	3.62e5	3.50e5	5.26e5	3.81e5	13220	inactive
CG33514	DRSC08472	3.08e5	2.13e5	2.13e5	2.03e5	11000	inactive
CG12917	DRSC06231	2.35e5	1.99e5	2.33e5	2.73e5	16000	inactive
CR14033 (pseudo)	DRSC02358	1.91e5	1.58e5	1.95e5	1.99e5	19420	inactive
CG7365	DRSC10824	1.22e5	1.08e5	70100	81815	8078	inactive
Nepl11 (Neprilysin-like 11)	DRSC12333	1.18e5	1.01e5	78870	78360	8620	inactive
CG3253	DRSC04350	1.04e5	93535	66600	67860	7465	inactive
CG42748	DRSC03712	47505	48220	36175	34390	2875	inactive
CG42748	DRSC03713	79865	74405	46595	55770	4175	inactive
CG42748	DRSC03734	56835	54745	49930	30375	2915	inactive
CG42307 + mus312	DRSC11008	1.77e5	1.96e5	1.47e5	1.09e5	6300	active
SmD3 (Small ribonucleoprotein particle protein SmD3)	DRSC07553	39955	44225	61035	61195	3910	inactive
Tlk (Tousled-like kinase)	DRSC17731	1.38e5	1.46e5	3.27e5	2.84e5	12840	inactive
Tlk (Tousled-like kinase)	DRSC17835	14300	16075	23425	18310	5025	inactive
Tlk (Tousled-like kinase)	DRSC22924						inactive
Tlk (Tousled-like kinase)	DRSC22926						active
CG14421	DRSC17918	1.04e5	1.07e5	1.89e5	2.04e5	9650	inactive
